{"source": "PubChem BioAssay AID1508597 (Cure First, 2020)", "assay": "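Survival screen with siRNA in ovarian cancer cells derived from patients, with or without rucaparib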 (primary screen)", "cell system": "human ovarian carcinoma lines grown from tumours: OCI-P5x (papillary serous) and OCI-C5x (clear cell)", "reagents": "siRNA pool against human genes, 1.25 pmol siRNA per well", "duration": "72 h or 96 h, depending on the cell culture", "conditions": "rucaparib 20 µM (about IC30) or vehicle, present until read-out", "rucaparib or vehicle": "Rucaparib", "cell line": "OCI-C5x (clear cell)", "measured": "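ATP luminescence measured at 72 or 96 h according to the culture, then normalised and expressed as percent viability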", "direction": "viability, normalised: higher = more viable cells remaining", "rule for the call": "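a well counts as a hit if its normalised viability is under 80 percent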", "meaning of the calls": "active = viability under 80%; inactive = viability 80% or more", "note": "This is an unselected part of the about 2,100 reagents, under one of the conditions tested. 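Calls flag viability under 80% in either arm, not effects specific to rucaparib; the reference for percent is not stated.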 Unmarked entries are inactive. A reagent listed more than once was tested more than once; the source does not tell the runs apart. Not stated in the record: the 100% reference."}
{"target": "CAMK2G (calcium/calmodulin dependent protein kinase II gamma)", "technical replicate": "1", "viability, normalised (%)": "75.8 (active)"}
{"target": "CAMK2G (calcium/calmodulin dependent protein kinase II gamma)", "technical replicate": "1", "viability, normalised (%)": "46.3 (active)"}
{"target": "CAMK2G (calcium/calmodulin dependent protein kinase II gamma)", "technical replicate": "2", "viability, normalised (%)": "47.4 (active)"}
{"target": "CAMK2G (calcium/calmodulin dependent protein kinase II gamma)", "technical replicate": "2", "viability, normalised (%)": "66.9 (active)"}
{"target": "CAMK2G (calcium/calmodulin dependent protein kinase II gamma)", "technical replicate": "3", "viability, normalised (%)": "65.2 (active)"}
{"target": "CAMK2G (calcium/calmodulin dependent protein kinase II gamma)", "technical replicate": "3", "viability, normalised (%)": "44 (active)"}
{"target": "PRKACB (protein kinase cAMP-activated catalytic subunit beta)", "technical replicate": "1", "viability, normalised (%)": "57.7 (active)"}
{"target": "PRKACB (protein kinase cAMP-activated catalytic subunit beta)", "technical replicate": "2", "viability, normalised (%)": "74 (active)"}
{"target": "PRKACB (protein kinase cAMP-activated catalytic subunit beta)", "technical replicate": "3", "viability, normalised (%)": "45 (active)"}
{"target": "RAD51 (RAD51 recombinase)", "technical replicate": "1", "viability, normalised (%)": "55.2 (active)"}
{"target": "RAD51 (RAD51 recombinase)", "technical replicate": "2", "viability, normalised (%)": "51.8 (active)"}
{"target": "RAD51 (RAD51 recombinase)", "technical replicate": "3", "viability, normalised (%)": "59.3 (active)"}
{"target": "NPR2 (natriuretic peptide receptor 2)", "technical replicate": "1", "viability, normalised (%)": "38.2 (active)"}
{"target": "NPR2 (natriuretic peptide receptor 2)", "technical replicate": "2", "viability, normalised (%)": "46.2 (active)"}
{"target": "NPR2 (natriuretic peptide receptor 2)", "technical replicate": "3", "viability, normalised (%)": "46.5 (active)"}
{"target": "AK2 (adenylate kinase 2)", "technical replicate": "1", "viability, normalised (%)": "44.9 (active)"}
{"target": "AK2 (adenylate kinase 2)", "technical replicate": "2", "viability, normalised (%)": "50.7 (active)"}
{"target": "AK2 (adenylate kinase 2)", "technical replicate": "3", "viability, normalised (%)": "40.8 (active)"}

Copied from the listing, 2 entries:
{"target": "RAD51 (RAD51 recombinase)", "technical replicate": "1", "viability, normalised (%)": "55.2 (active)"}
{"target": "RAD51 (RAD51 recombinase)", "technical replicate": "2", "viability, normalised (%)": "51.8 (active)"}

Further records follow:
{"target": "PDE9A (phosphodiesterase 9A)", "technical replicate": "1", "viability, normalised (%)": "79.8 (active)"}
{"target": "PDE9A (phosphodiesterase 9A)", "technical replicate": "2", "viability, normalised (%)": "49.4 (active)"}
{"target": "PDE9A (phosphodiesterase 9A)", "technical replicate": "3", "viability, normalised (%)": "57.8 (active)"}
{"target": "TBL1XR1 (TBL1X/Y related 1)", "technical replicate": "1", "viability, normalised (%)": "26.6 (active)"}
{"target": "TBL1XR1 (TBL1X/Y related 1)", "technical replicate": "1", "viability, normalised (%)": "59.9 (active)"}
{"target": "TBL1XR1 (TBL1X/Y related 1)", "technical replicate": "2", "viability, normalised (%)": "31.3 (active)"}
{"target": "TBL1XR1 (TBL1X/Y related 1)", "technical replicate": "2", "viability, normalised (%)": "57.4 (active)"}
{"target": "TBL1XR1 (TBL1X/Y related 1)", "technical replicate": "3", "viability, normalised (%)": "36.6 (active)"}
{"target": "TBL1XR1 (TBL1X/Y related 1)", "technical replicate": "3", "viability, normalised (%)": "48 (active)"}
{"target": "TGM3 (transglutaminase 3)", "technical replicate": "1", "viability, normalised (%)": "55.8 (active)"}
{"target": "TGM3 (transglutaminase 3)", "technical replicate": "2", "viability, normalised (%)": "39.2 (active)"}
{"target": "TGM3 (transglutaminase 3)", "technical replicate": "3", "viability, normalised (%)": "47.1 (active)"}
{"target": "JUNB (JunB proto-oncogene, AP-1 transcription factor subunit)", "technical replicate": "1", "viability, normalised (%)": "41.4 (active)"}
{"target": "JUNB (JunB proto-oncogene, AP-1 transcription factor subunit)", "technical replicate": "2", "viability, normalised (%)": "36 (active)"}
{"target": "JUNB (JunB proto-oncogene, AP-1 transcription factor subunit)", "technical replicate": "3", "viability, normalised (%)": "55.3 (active)"}
